Our source for the radiolabeling and labeling efficiency values is patent US6685912B2, “Post-labeling stabilization of radiolabeled proteins and peptides” (Rhomed Incorporated, priority 1996, dated 2004).

The data set is described as follows: Labeling efficiency of Re-188-RC-160 with ascorbic acid present during labeling (C18 SepPak, RP-HPLC, TLC). The data set is classed as physicochemical. The source says:
The results obtained by analytical RP-HPLC were confirmed by TLC studies and by isocratic elutions from C-18 SepPak columns. […] The RP-HPLC results were confirmed by TLC. […] The addition of ascorbate, or ascorbate/sulfite solutions, maximized the reduction of the peptide RC-160, which is present in excess, without compromising ^188Re-RC-160. The radiolabeling kit could be formulated with an excess of stannous ions and RC-160 to accommodate a variety of labeling situations. In the presence of ^188Re, the RC-160 and stannous ions interact to result in what is believed to be metal-cyclized ^188Re-RC-160. […] Since ^188Re is produced essentially carrier-free from a 188W/^188Re generator, it is hypothesized that excess stannous ions will reduce the RC-160 not complexed to ^188Re. […] The net result is a stable radiolabeled peptide with a very high specific activity.

With “Re-188-RC-160: RC-160, cyclic somatostatin analogue D-Phe-Cys-Tyr-D-Trp-Lys-Val-Cys-Trp-NH2, radiolabeled with 188Re using stannous kit (WKVCW; D-Phe, D-Trp, disulfide, amide, 188Re label; printed: Trp-Lys-Val-Cys-Trp-)”, the radiolabeling entry (400 μg ascorbic acid added prior to the addition of the rhenium) is reported as “severely compromised”; the radiolabeling entry (same amount and concentration of ascorbate added prior to the addition of the rhenium) was “not effectively radiolabeled”. The labeling efficiency result (labeled in the presence of 400 μg ascorbic acid, further ascorbic acid added after the labeling) is listed as “did not result in any improvement”.
